In the supplement of paper PMC8728848:
Some of the results follow.

What was measured:
Test in all cases: glycan array binding signal (z-score within array); higher = stronger binding
Settings in all cases: glycan notation: IUPAC condensed, linker removed
[1] = target: GlcNAc(b1-2)Gal(b1-3)GalNAc
Procedure, shortened: (§1)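 The Consortium for Functional Glycomics database supplied 3228 glycan arrays, of which those lacking an available protein sequence were dropped. The binding signal, a within-array Z-score, was averaged across arrays of the same protein sequence and across linkers. Negative scores can be read as non-binding.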

[2] = target: GlcNAc(b1-2)Man(a1-3)[GlcNAc(b1-2)Man(a1-6)]Man(b1-4)GlcNAc(b1-4)GlcNAc
Procedure, shortened: as §1

[3] = target: GlcNAc(b1-2)Man(a1-3)[GlcNAc(b1-2)Man(a1-6)]Man(b1-4)GlcNAc(b1-4)[Fuc(a1-6)]GlcNAc
Procedure, shortened: as §1

[4] = target: GlcNAc(b1-2)Man(a1-3)[GlcNAc(b1-4)][GlcNAc(b1-2)Man(a1-6)]Man(b1-4)GlcNAc(b1-4)GlcNAc
Procedure, shortened: as §1

[5] = target: GlcNAc(b1-2)Man(a1-3)[GlcNAc(b1-4)][GlcNAc(b1-2)Man(a1-6)]Man(b1-4)GlcNAc(b1-4)[Fuc(a1-6)]GlcNAc
Procedure, shortened: as §1

[6] = target: GlcNAc(b1-2)[GlcNAc(b1-4)]Man(a1-3)[GlcNAc(b1-2)Man(a1-6)]Man(b1-4)GlcNAc(b1-4)GlcNAc
Procedure, shortened: as §1

[7] = target: GlcNAc(b1-2)[GlcNAc(b1-4)]Man(a1-3)[GlcNAc(b1-4)][GlcNAc(b1-2)Man(a1-6)]Man(b1-4)GlcNAc(b1-4)GlcNAc
Procedure, shortened: as §1

[8] = target: GlcNAc(b1-2)[GlcNAc(b1-4)]Man(a1-3)[GlcNAc(b1-4)][GlcNAc(b1-2)[GlcNAc(b1-6)]Man(a1-6)]Man(b1-4)GlcNAc(b1-4)GlcNAc
Procedure, shortened: as §1

[9] = target: GlcNAc(b1-2)[GlcNAc(b1-4)]Man(a1-3)[GlcNAc(b1-4)][GlcNAc(b1-2)[GlcNAc(b1-6)]Man(a1-6)]Man(b1-4)GlcNAc(b1-4)[Fuc(a1-6)]GlcNAc
Procedure, shortened: as §1

[10] = target: GlcNAc(b1-2)[GlcNAc(b1-6)]Man(a1-6)[GlcNAc(b1-2)Man(a1-3)]Man(b1-4)GlcNAc(b1-4)GlcNAc
Procedure, shortened: as §1

[11] = target: GlcNAc(b1-2)[GlcNAc(b1-6)]Man(a1-6)[GlcNAc(b1-2)Man(a1-3)]Man(b1-4)GlcNAc(b1-4)[Fuc(a1-6)]GlcNAc
Procedure, shortened: as §1

[12] = target: GlcNAc(b1-2)[GlcNAc(b1-6)]Man(a1-6)[GlcNAc(b1-4)][GlcNAc(b1-2)Man(a1-3)]Man(b1-4)GlcNAc(b1-4)GlcNAc
Procedure, shortened: as §1

[13] = target: GlcNAc(b1-3)Fuc
Procedure, shortened: as §1

[14] = target: GlcNAc(b1-3)Gal
Procedure, shortened: as §1

[15] = target: GlcNAc(b1-3)Gal(b1-3)GalNAc
Procedure, shortened: as §1

[16] = target: GlcNAc(b1-3)Gal(b1-4)Glc
Procedure, shortened: as §1

[17] = target: GlcNAc(b1-3)Gal(b1-4)GlcNAc
Procedure, shortened: as §1

[18] = target: GlcNAc(b1-3)Gal(b1-4)GlcNAc(b1-2)Man(a1-3)[GlcNAc(b1-3)Gal(b1-4)GlcNAc(b1-2)Man(a1-6)]Man(b1-4)GlcNAc(b1-4)GlcNAc
Procedure, shortened: as §1

[19] = target: GlcNAc(b1-3)Gal(b1-4)GlcNAc(b1-2)Man(a1-3)[GlcNAc(b1-3)Gal(b1-4)GlcNAc(b1-2)Man(a1-6)]Man(b1-4)GlcNAc(b1-4)[Fuc(a1-6)]GlcNAc
Procedure, shortened: as §1

[20] = target: GlcNAc(b1-3)Gal(b1-4)GlcNAc(b1-2)[GlcNAc(b1-3)Gal(b1-4)GlcNAc(b1-6)]Man(a1-6)[GlcNAc(b1-3)Gal(b1-4)GlcNAc(b1-2)Man(a1-3)]Man(b1-4)GlcNAc(b1-4)GlcNAc
Procedure, shortened: as §1

[21] = target: GlcNAc(b1-3)Gal(b1-4)GlcNAc(b1-3)Gal(b1-4)GlcNAc
Procedure, shortened: as §1

[22] = target: GlcNAc(b1-3)Gal(b1-4)GlcNAc(b1-3)Gal(b1-4)GlcNAc(b1-2)Man(a1-3)[GlcNAc(b1-3)Gal(b1-4)GlcNAc(b1-3)Gal(b1-4)GlcNAc(b1-2)Man(a1-6)]Man(b1-4)GlcNAc(b1-4)GlcNAc
Procedure, shortened: as §1

[23] = target: GlcNAc(b1-3)Gal(b1-4)GlcNAc(b1-3)Gal(b1-4)GlcNAc(b1-2)Man(a1-3)[GlcNAc(b1-3)Gal(b1-4)GlcNAc(b1-3)Gal(b1-4)GlcNAc(b1-2)Man(a1-6)]Man(b1-4)GlcNAc(b1-4)[Fuc(a1-6)]GlcNAc
Procedure, shortened: as §1

[24] = target: GlcNAc(b1-3)Gal(b1-4)GlcNAc(b1-3)Gal(b1-4)GlcNAc(b1-2)[GlcNAc(b1-3)Gal(b1-4)GlcNAc(b1-3)Gal(b1-4)GlcNAc(b1-6)]Man(a1-6)[GlcNAc(b1-3)Gal(b1-4)GlcNAc(b1-3)Gal(b1-4)GlcNAc(b1-2)Man(a1-3)]Man(b1-4)GlcNAc(b1-4)[Fuc(a1-6)]GlcNAc
Procedure, shortened: as §1

[25] = target: GlcNAc(b1-3)Gal(b1-4)GlcNAc(b1-3)Gal(b1-4)GlcNAc(b1-3)Gal(b1-4)GlcNAc(b1-2)Man(a1-3)[GlcNAc(b1-3)Gal(b1-4)GlcNAc(b1-3)Gal(b1-4)GlcNAc(b1-3)Gal(b1-4)GlcNAc(b1-2)Man(a1-6)]Man(b1-4)GlcNAc(b1-4)GlcNAc
Procedure, shortened: as §1

[26] = target: GlcNAc(b1-3)Gal(b1-4)GlcNAc(b1-3)Gal(b1-4)GlcNAc(b1-3)Gal(b1-4)GlcNAc(b1-2)Man(a1-3)[GlcNAc(b1-3)Gal(b1-4)GlcNAc(b1-3)Gal(b1-4)GlcNAc(b1-3)Gal(b1-4)GlcNAc(b1-2)Man(a1-6)]Man(b1-4)GlcNAc(b1-4)[Fuc(a1-6)]GlcNAc
Procedure, shortened: as §1

[27] = target: GlcNAc(b1-3)Gal(b1-4)GlcNAc(b1-3)Gal(b1-4)GlcNAc(b1-3)Gal(b1-4)GlcNAc(b1-2)[GlcNAc(b1-3)Gal(b1-4)GlcNAc(b1-3)Gal(b1-4)GlcNAc(b1-3)Gal(b1-4)GlcNAc(b1-6)]Man(a1-6)[GlcNAc(b1-3)Gal(b1-4)GlcNAc(b1-3)Gal(b1-4)GlcNAc(b1-3)Gal(b1-4)GlcNAc(b1-2)Man(a1-3)]Man(b1-4)GlcNAc(b1-4)[Fuc(a1-6)]GlcNAc
Procedure, shortened: as §1

[28] = target: GlcNAc(b1-3)Gal(b1-4)GlcNAc(b1-3)Gal(b1-4)GlcNAc(b1-3)Gal(b1-4)GlcNAc(b1-3)Gal(b1-4)GlcNAc(b1-2)Man(a1-3)[GlcNAc(b1-3)Gal(b1-4)GlcNAc(b1-3)Gal(b1-4)GlcNAc(b1-3)Gal(b1-4)GlcNAc(b1-3)Gal(b1-4)GlcNAc(b1-2)Man(a1-6)]Man(b1-4)GlcNAc(b1-4)GlcNAc
Procedure, shortened: as §1

[29] = target: GlcNAc(b1-3)Gal(b1-4)GlcNAc(b1-3)Gal(b1-4)GlcNAc(b1-3)Gal(b1-4)GlcNAc(b1-3)Gal(b1-4)GlcNAc(b1-2)Man(a1-3)[GlcNAc(b1-3)Gal(b1-4)GlcNAc(b1-3)Gal(b1-4)GlcNAc(b1-3)Gal(b1-4)GlcNAc(b1-3)Gal(b1-4)GlcNAc(b1-2)Man(a1-6)]Man(b1-4)GlcNAc(b1-4)[Fuc(a1-6)]GlcNAc
Procedure, shortened: as §1

[30] = target: GlcNAc(b1-3)Gal(b1-4)GlcNAc(b1-3)Gal(b1-4)GlcNAc(b1-3)Gal(b1-4)GlcNAc(b1-3)Gal(b1-4)GlcNAc(b1-2)[GlcNAc(b1-3)Gal(b1-4)GlcNAc(b1-3)Gal(b1-4)GlcNAc(b1-3)Gal(b1-4)GlcNAc(b1-3)Gal(b1-4)GlcNAc(b1-6)]Man(a1-6)[GlcNAc(b1-3)Gal(b1-4)GlcNAc(b1-3)Gal(b1-4)GlcNAc(b1-3)Gal(b1-4)GlcNAc(b1-3)Gal(b1-4)GlcNAc(b1-2)Man(a1-3)]Man(b1-4)GlcNAc(b1-4)[Fuc(a1-6)]GlcNAc
Procedure, shortened: as §1

B1: Awp1 (Candida glabrata) (protein)
chain: MSLITIFAFLIKATLVLSLDILTPTTLTGDQTFNEDVSVVSSLTLNDGSQYLFNNLLQIAPSSASVTANALAAVSVFTFSLPPSSSLSNSGTLIISNSNTGPSTEQHIVITPNVMANTGTITLSLAHTNTDSSSTLIIDPVTFYNTGTINYESIGSETNDPSLTGNILSIGSSGRTLQNLGTINLNAANSYYLLGTITENSGSINVQKGFLYVNALDFIGNTINLSTTTALAFISPVSQVVRVRGVFFGNIIASVGSSGTFSYNTQTGILTVTTNGVYSYDIGCGYNPALMSGQQETLSFQGNPYDTFLVLVNQPIPSDLTCAAVSSSITPSSSVEPSSSVVPSSSVEPSSSVEPSSSVEPSSSVEPSSSVEPSSSVEPSSSVEPSSSVEPSSSVEPSSSVEPSSSVEPSSSVEPSSSVEPSSSVEPSSSVEPSSSVEPSSSVEPSSSVEPSSSVEPSSLIVPSSSVEPSSSVLPSSSVVPSSSVEPSTPPIPSSSVEPSSSVVPSSPAVPSSSVEPSTPPIPSSSVVSASVFDTSSTLPSSPSVPPSSVSPSTISTPSSSAAPSSFCPTCVSSGTPPAPSSSAIVPTSSAGGGNGGDNREPGAAGQPGAAGQPGAAGQPGAAGQPGAAGQPGAAGQPGAAGQPGAAGQPGAAGQPGAAGQPGAGFGVGSEQPTPGAGAGSGSADGNQSGTGSGTGNGQQGSGQAGSGQAGSGQEGSGQAGSGQAGSGQAGSGQAGSGQAGLDNTASGQSEGGQASAMDGDQSGRDGQSNSGSLLQPNAQQGTGSGTGSDIGADQASGESPGQIGDAQPGSGTDQSSGRHSLAAEARTSQSHSLAADARTRSTTRQTSVIAPDTAPGTASGTAPGTAPGTAVVTTFHGCGTVNHKGMINILLALALLVLL
Q: How did the “glycan array binding signal (z-score)” value [1] turn out when B1 was run?
A: -0.741

Q: What about the “glycan array binding signal (z-score)” value [2] of the same binder?
A: -0.809

Q: What about the “glycan array binding signal (z-score)” value [3] of the same binder?
A: 0.731

Q: What about the “glycan array binding signal (z-score)” value [4] of the same binder?
A: -1.09

Q: And the “glycan array binding signal (z-score)” value [5]?
A: 1.35

Q: What about the “glycan array binding signal (z-score)” value [6] of the same binder?
A: 0.152

Q: And the “glycan array binding signal (z-score)” value [7]?
A: 0.047

Q: And the “glycan array binding signal (z-score)” value [8]?
A: -1.03

Q: What about the “glycan array binding signal (z-score)” value [9] of the same binder?
A: -0.535

Q: And the “glycan array binding signal (z-score)” value [10]?
A: 0.964

Q: And the “glycan array binding signal (z-score)” value [11]?
A: -0.571

Q: What about the “glycan array binding signal (z-score)” value [12] of the same binder?
A: -1

Q: And the “glycan array binding signal (z-score)” value [13]?
A: -0.414

Q: And the “glycan array binding signal (z-score)” value [14]?
A: -0.929

Q: And the “glycan array binding signal (z-score)” value [15]?
A: 2.02

Q: What about the “glycan array binding signal (z-score)” value [16] of the same binder?
A: 1.19

Q: What about the “glycan array binding signal (z-score)” value [17] of the same binder?
A: -0.055

Q: What about the “glycan array binding signal (z-score)” value [18] of the same binder?
A: -0.178

Q: What about the “glycan array binding signal (z-score)” value [19] of the same binder?
A: -0.465

Q: What about the “glycan array binding signal (z-score)” value [20] of the same binder?
A: 0.166

Q: What about the “glycan array binding signal (z-score)” value [21] of the same binder?
A: 0.214

Q: What about the “glycan array binding signal (z-score)” value [22] of the same binder?
A: -0.505

Q: What about the “glycan array binding signal (z-score)” value [23] of the same binder?
A: 0.243

Q: What about the “glycan array binding signal (z-score)” value [24] of the same binder?
A: 0.68

Q: And the “glycan array binding signal (z-score)” value [25]?
A: 2

Q: What about the “glycan array binding signal (z-score)” value [26] of the same binder?
A: 0.251

Q: What about the “glycan array binding signal (z-score)” value [27] of the same binder?
A: 2.24

Q: What about the “glycan array binding signal (z-score)” value [28] of the same binder?
A: 0.222

Q: And the “glycan array binding signal (z-score)” value [29]?
A: 0.535

Q: And the “glycan array binding signal (z-score)” value [30]?
A: 0.405
